Results from PMC9443502.
Results are given in words; binding and its absence hold for the method and conditions named. In cells and extracts the contact can be indirect. Some entries that bind do so weakly or less than the wild type. For some assays here: Sequences can lack the tags named with a protein. One block for each binder: values may come before it.

Key:
DEPDC1-V5 = biological target: T1, DEPDC1-V5 (UniProt Q5TB30); assay: co-IP; HEK293T cells co-transfected with DEPDC1-V5 and FOXM1-Flag; RIPA lysate; antibodies (anti-V5, anti-DEPDC1, anti-FOXM1, anti-FLAG, normal IgG) and protein G beads, 4 °C overnight; four RIPA washes; Western blot; forward and reverse precipitation
T1 sequence: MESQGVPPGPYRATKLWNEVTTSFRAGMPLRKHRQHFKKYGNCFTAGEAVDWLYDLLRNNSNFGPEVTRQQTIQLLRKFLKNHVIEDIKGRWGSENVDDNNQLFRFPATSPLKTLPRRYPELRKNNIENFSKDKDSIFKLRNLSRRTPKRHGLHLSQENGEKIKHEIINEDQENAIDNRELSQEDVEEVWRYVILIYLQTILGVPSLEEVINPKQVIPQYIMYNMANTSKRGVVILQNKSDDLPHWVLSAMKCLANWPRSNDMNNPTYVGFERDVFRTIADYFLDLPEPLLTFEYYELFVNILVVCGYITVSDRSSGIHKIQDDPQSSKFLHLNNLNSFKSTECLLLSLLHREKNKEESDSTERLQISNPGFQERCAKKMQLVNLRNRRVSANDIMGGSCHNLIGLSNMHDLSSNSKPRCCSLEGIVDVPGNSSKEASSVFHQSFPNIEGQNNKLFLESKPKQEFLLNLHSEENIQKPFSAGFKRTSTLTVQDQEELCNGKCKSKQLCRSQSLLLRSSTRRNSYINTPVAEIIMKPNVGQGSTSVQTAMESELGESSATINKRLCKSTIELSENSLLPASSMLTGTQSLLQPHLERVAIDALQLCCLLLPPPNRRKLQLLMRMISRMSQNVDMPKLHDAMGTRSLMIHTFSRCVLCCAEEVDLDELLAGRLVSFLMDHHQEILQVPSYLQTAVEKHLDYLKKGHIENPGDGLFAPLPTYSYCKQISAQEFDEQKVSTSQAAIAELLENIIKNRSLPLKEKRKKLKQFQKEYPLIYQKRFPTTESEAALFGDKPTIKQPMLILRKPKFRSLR

[1] = biological target: T2, endogenous DEPDC1 (human (endogenous in SCC-25)) (UniProt Q5TB30); assay: co-IP; endogenous proteins in SCC-25 cell lysate; Western blot
T2 sequence: T1 sequence

binding (DEPDC1-V5): binds
B1: FOXM1-Flag (protein, UniProt Q08050 1-763)
chain: MKTSPRRPLILKRRRLPLPVQNAPSETSEEEPKRSPAQQESNQAEASKEVAESNSCKFPAGIKIINHPTMPNTQVVAIPNNANIHSIITALTAKGKESGSSGPNKFILISCGGAPTQPPGLRPQTQTSYDAKRTEVTLETLGPKPAARDVNLPRPPGALCEQKRETCADGEAAGCTINNSLSNIQWLRKMSSDGLGSRSIKQEMEEKENCHLEQRQVKVEEPSRPSASWQNSVSERPPYSYMAMIQFAINSTERKRMTLKDIYTWIEDHFPYFKHIAKPGWKNSIRHNLSLHDMFVRETSANGKVSFWTIHPSANRYLTLDQVFKPLDPGSPQLPEHLESQQKRPNPELRRNMTIKTELPLGARRKMKPLLPRVSSYLVPIQFPVNQSLVLQPSVKVPLPLAASLMSSELARHSKRVRIAPKVLLAEEGIAPLSSAGPGKEEKLLFGEGFSPLLPVQTIKEEEIQPGEEMPHLARPIKVESPPLEEWPSPAPSFKEESSHSWEDSSQSPTPRPKKSYSGLRSPTRCVSEMLVIQHRERRERSRSRRKQHLLPPCVDEPELLFSEGPSTSRWAAELPFPADSSDPASQLSYSQEVGGPFKTPIKETLPISSTPSKSVLPRTPESWRLTPPAKVGGLDFSPVQTSQGASDPLPDPLGLMDLSTTPLQSAPPLESPQRLLSSEPLDLISVPFGNSSPSDIDVPKPGSPEPQVSGLAANRSLTEGLVLDTMNDSLSKILLDISFPGLDEDPLGPDNINWSQFIPELQ

binding [1]: binds
B2: endogenous FOXM1 (protein, UniProt Q08050 1-763)
chain: B1 chain
